# The supplement of paper PMC12889115
# Some of the results follow. These are raw signals, not scaled to a control.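 First-pass screen: polymyxin B was added at a level that permeabilizes the Salmonella outer membrane while sparing the inner membrane. DMSO wells, with and without polymyxin B, defined maximum growth. Because plates differed from one another, each plate's data were ranked separately and the compounds with the lowest OD600 were carried forward as hits.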
# System: Salmonella enterica serovar Typhimurium SL1344
# Assay: bacterial growth OD600 after 18 h with compound and polymyxin B; higher = more bacterial growth (less inhibition)
# Settings: 50 µM, Mueller-Hinton broth
Compound,bacterial growth OD600 (polymyxin B 1 µg/mL),bacterial growth OD600 (polymyxin B 0.75 µg/mL)
CCOC(=O)C1(Cc2ccc(F)cc2F)CCCN(C(=O)CCn2nccc2C)C1 (stereo not given),1.31,–
CC(=O)c1ccc(OCc2cc(C(=O)N(C)Cc3cc(C)[nH]n3)no2)cc1,1.01,–
COc1ccc(CC2(CCC(=O)N(C)CCc3ccc(OC)c(OC)c3)CCC(=O)N2)c(F)c1 (stereo not given),–,0.822
Cc1oc(-c2ccccc2NS(C)(=O)=O)nc1CN(C)Cc1ccc(OC(F)(F)F)cc1,–,0.548
COc1cccc(CN2CCC(C(=O)Nc3ccc(Oc4cccnc4)cc3)CC2)c1,0.674,–
O=C(CCc1ccccc1)C(=O)N1CCC(n2nccc2NC(=O)C2CCOC2)CC1 (stereo not given),1.14,–
CCc1ocnc1C(=O)NCc1cccnc1-n1cnc2ccccc21,–,0.915
COc1ccc(CCNC(=O)CCC2(Cc3ccc(SC)cc3)CCC(=O)N2)cc1OC (stereo not given),–,0.827
COc1ccc(CC2(CCC(=O)NCC3(N4CCOCC4)CCCCCC3)CCC(=O)N2)c(F)c1 (stereo not given),–,0.837
C=CC[C@@H]1CC=C[C@@H](C)N1C(=O)CCCn1nnnc1CN1CCC(C)CC1,–,0.644
CN(Cc1nc(Cc2cccc(C(F)(F)F)c2)no1)C1CC(C)(C)NC(C)(C)C1,0.968,–
CC(C)N1CCN(C(=O)CC2(c3cccc(F)c3)CC(=O)N(Cc3cccnc3)C2=O)CC1 (stereo not given),–,0.758
C=C(C)CN(C)C(=O)CC(c1cccc(Cl)c1)c1ccccc1O (stereo not given),0.021,–
CC(C)Cn1cc(C(=O)NCC2(c3ccccc3)CCCCC2)c(=O)c(C(=O)N2CCCCCC2)c1,–,0.028
COc1cccc(CCC(=O)N2CCC(CCC(=O)NCc3cccnc3)CC2)c1,0.939,–
CCCS(=O)(=O)N1CCC2(CCCN(Cc3ccc(C(C)C)cc3)C2=O)C1 (stereo not given),0.593,–
CC1CCCN(Cc2cnc(S(C)(=O)=O)n2Cc2ccccc2F)C1 (stereo not given),1.18,–
CCN(CC1CCCO1)C(=O)c1csc2nc(-c3ccc(Cl)cc3)cn12 (stereo not given),1.17,–
CCOC(=O)C1(CC2CCCCO2)CCN(C(=O)COc2ccc(Cl)cc2)CC1 (stereo not given),1.03,–
CCN1CC(CN(C)Cc2nc(-c3ccccn3)no2)CC1=O (stereo not given),0.881,–
COCCC(=O)N1CCCC(CCc2ccccc2)C1 (stereo not given),–,0.843
O=C1CCCN1CC(=O)N1CCC(C2CCN(Cc3cccc(F)c3F)CC2)C1 (stereo not given),–,0.846
COCC(=O)N1CCCC(CCc2c(F)cccc2F)C1 (stereo not given),–,0.789
COC(C(=O)NCc1nc(-c2ccccc2NC(=O)CC2CCCC2)oc1C)c1ccccc1 (stereo not given),–,0.009
COCCCN1C(=O)CC(CC(=O)N2CCN(C)C(c3ccccc3)C2)(c2ccccc2OC)C1=O (stereo not given),–,0.717
COc1ccccc1CC(=O)Nc1cnn(CC(=O)N(C)CC2(c3ccccc3)CC2(C)C)c1 (stereo not given),–,0.697
COCCN1CCCC2(CCN(C(=O)Nc3cccc(F)c3)C2)C1=O (stereo not given),–,0.763
CC(=O)N1CCCN(C(=O)CC(c2cccc(O)c2)c2cccc(Cl)c2)CC1 (stereo not given),0.792,–
Cc1ccc2c(c1)CN(CC(=O)NCC1(c3ccccc3)CCOCC1)CC(c1ccsc1)O2 (stereo not given),–,0.007
CCOC(=O)c1csc(CCNC(=O)Cn2cc(NC(=O)CCC(=O)c3ccccc3)cn2)n1,–,0.812

# 2 compounds drawn at random from those above, as already listed:
Compound,bacterial growth OD600 (polymyxin B 1 µg/mL),bacterial growth OD600 (polymyxin B 0.75 µg/mL)
CC(C)Cn1cc(C(=O)NCC2(c3ccccc3)CCCCC2)c(=O)c(C(=O)N2CCCCCC2)c1,–,0.028
COc1ccc(CC2(CCC(=O)N(C)CCc3ccc(OC)c(OC)c3)CCC(=O)N2)c(F)c1 (stereo not given),–,0.822
